Laboratory results reported in patent US12622975B2, “Peptide-conjugated prodrugs” (priority 2019, dated 2026).
Some entries share one result that the patent states for a list of compounds. For at least one compound, name, drawing or mass did not settle the structure.

Tested on: wild type E. coli strain (K-12)
Assay: Bacteria culture and inhibitory activity assay (MIC)
Assay type: cell-based
Conditions: wild type E. coli (K-12)
Protocol: Bacteria culture and inhibitory activity assay: Single esterase (BioH, YjfP, FrsA, YbfF, YfbB, YqiA, YeiG, or and YpfH) deletion mutants were purchased from Dharmacon Horizon Discovery (Cambridge, United Kingdom). […] Compounds were added at different concentrations.
Compounds were added at different concentrations.

O=C(O)CNC(=O)CCC(=O)OCC(NC(=O)C(Cl)Cl)C(O)c1ccc([N+](=O)[O-])cc1 (stereo not shown) [CLsuG]
MIC: > 200 µM
